# Reference: PubChem BioAssay AID1347075 (National Center for Advancing Translational Sciences (NCATS), 2019)
# Screen size: about 400,000 compounds; about 5,500 (1.4%) were called active. This list was built around the results that the source calls inconclusive (neither active nor inactive); the mix of calls is not that of the screen. Calls come from the whole dose curve; as a rule, active = well fitted cell-killing curve with a large enough effect; inconclusive = small, poorly fitted or top-dose-only effect, or effect the other way; inactive = flat fitted curve, though single readings scatter. Potencies of inconclusive entries are doubtful fits and often do not repeat.
# Assay: qHTS assay for MDR1-selective chemotherapeutics: Primary screen using the parental adenocarcinoma cell KB-3-1; note: nearly all actives have a fitted effect of over 60% in size
# Conditions: KB-3-1 viability, CellTiter-Glo ATP luminescence, 72 h; activity change, negative = cytotoxic: at 46.1 µM (top of the series)
# Procedure, shortened: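 72 h, 37 °C compound treatment of KB-3-1 parental cells; CellTiter-Glo added, 10 min, luminescence read. Data corrected against DMSO-only plates and normalized before curve fitting.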
# % is set by controls: 0 for no effect and ±100 for the full control effect; potency is the fitted concentration of half-maximal effect.
Structure (SMILES),"activity change, negative = cytotoxic",Potency
CCC(CC)c1nn2c(=O)cc(COc3ccc(NC(=O)c4ccccc4C)cc3)nc2s1,inactive: -14.5%,
CCCCC[C@H](O)/C=C/[C@H]1CCC(=O)[C@@H]1CCCCCCC(=O)N1CCCCC1CO (stereo not given in full),inactive: -4.29%,
CC1(C)Cc2c(C#N)c(OCC(=O)c3ccc(Cl)cc3)nc(-c3ccoc3)c2CO1,inactive: 0%,
COc1ccc(C)cc1NC(=O)CSc1nnc(COc2ccc(Cl)cc2)n1Cc1ccco1,inactive: -5.65%,
Clc1ccc(CN2CCN(/N=C/c3ccco3)CC2)cc1,inconclusive: 0.0952%,
COc1ccc(C(=O)NCC(c2cccnc2)N2CCN(c3ccccc3)CC2)cc1 (stereo not given),,"inconclusive: 2.91 µM [cytotoxic, partial curve, poor fit]"
COc1cccc(Cn2c(=O)cc(C)c3c(C)nn(C)c32)c1,,"inconclusive: 29.1 µM [cytotoxic, single point]"
C/C=C/c1ccc(OCc2cc(=O)n3cc(C)ccc3n2)c(OC)c1,inactive: 4.23%,
Cc1cccc(OCC(=O)NCC(=O)N/N=C/c2cc(Br)cc(Br)c2O)c1,,"inconclusive: 25.9 µM [cytotoxic, single point]"
COC(=O)c1cc(=O)n(CCc2ccccc2)c(=Nc2ccc(F)cc2)s1,inactive: 0%,
CCOC(=O)c1ccc(Nc2ncnc3ccccc23)cc1,inactive: 2.85%,
Clc1ccc2nc(COc3ccccc3)[nH]c2c1,,"inconclusive: 29.1 µM [cytotoxic, single point]"
CCc1nn2c(-c3ccccc3OC)ccnc2c1-c1ccccc1,inactive: -7.35%,
COc1cc(NC(=O)C2CCCN(S(=O)(=O)c3ccc4c(c3)CCCN4C(C)=O)C2)cc(OC)c1 (stereo not given),inactive: -19.4%,
Cc1cc(C2=NNC(=Nc3ccc(S(=O)(=O)N4CCOCC4)cc3)SC2)c(C)n1C,,"inconclusive: 29.1 µM [cytotoxic, single point]"
CC1CCCCC1NC(=S)Nc1ccc(SC(F)F)cc1 (stereo not given),,"inconclusive: 18.4 µM [cytotoxic, single point]"
COc1ccc(S(=O)Cc2ccc(C(=O)N3CCN(c4cccc(C)c4C)CC3)o2)cc1 (stereo not given),,"inconclusive: 0.82 µM [cytotoxic, full curve, poor fit]"
Cc1c(Cl)cccc1NC(=O)Cn1c(=O)n(Cc2ccco2)c(=O)c2sc3ccccc3c21,inactive: -16.4%,

# Full records, looked up by structure.
# CC1(C)Cc2c(C#N)c(OCC(=O)c3ccc(Cl)cc3)nc(-c3ccoc3)c2CO1 in the list: activity change, negative = cytotoxic: inactive: 0%
# Clc1ccc(CN2CCN(/N=C/c3ccco3)CC2)cc1 in the list: activity change, negative = cytotoxic: inconclusive: 0.0952%

# (cont.)

Structure (SMILES),"activity change, negative = cytotoxic",Potency
N#Cc1nc(-c2ccc(OCc3ccccc3Cl)cc2)oc1N1CCCCCC1,inactive: 14.8%,
CCNC(=O)c1c(NC(=O)c2nc(SC)ncc2Cl)sc2c1CCCC2,,"inconclusive: 18.4 µM [cytotoxic, single point]"
CC1CCCCC12NC(=O)N(CC(=O)OCc1cccc(F)c1)C2=O (stereo not given),inactive: 2.6%,
Cc1ccc(-n2cccc2C(=S)N=P(N(C)C)(N(C)C)N(C)C)cc1,,active: 8.2 µM
CC[C@@]12C(=O)N(c3ccc(OC)cc3)C(=O)N1[C@H](c1cccc(C)c1)[C@@H]1C(=O)N(Cc3ccccc3)C(=O)[C@@H]12,inactive: 5.3%,
O=S1(=O)N=C(N(CCO)/N=C/C=C/c2ccccc2)c2ccccc21,,"inconclusive: 29.1 µM [cytotoxic, single point]"
CSc1ccccc1C(=O)Nc1ccccc1C(=O)NC(C)C,inactive: -2.04%,
COc1cccc(NC(=O)Nc2nc(SC(C)(C)C)ns2)c1,,"inconclusive: 20.6 µM [cytotoxic, partial curve, poor fit]"
Clc1cccc(Cl)c1CO/N=C/c1c(-c2ccccc2)nc2n1CCS2,,"inconclusive: 35.5 µM [cytotoxic, single point]"
COc1ccc(OC)c(CCNC(=O)c2ccc3c(c2)c(C)c(C)n3Cc2ccccc2)c1,,"inconclusive: 20.6 µM [cytotoxic, single point]"
CC(C)c1cc(Br)ccc1OCCCN1C(=O)NC(C)(C)C1=O,,"inconclusive: 25.9 µM [cytotoxic, single point]"
C=CCn1c(COc2ccccc2F)nnc1SCC(=O)c1c[nH]c2ccccc12,,"inconclusive: 29.1 µM [cytotoxic, single point]"
COc1ccc(OC)c(C(C(=O)NC2CCCCC2)N(C(=O)c2snc(C(N)=O)c2N)c2ccccc2OC)c1 (stereo not given),inactive: 0%,
Cc1ccc(-n2ncc3c(=O)n(CC(=O)NCc4ccco4)cnc32)cc1C,,active: 23.1 µM
COC(=O)C(C)(C)ONC(=O)Nc1ccccc1Cl,,"inconclusive: 16.4 µM [rising, single point]"
O=C(N/N=C/c1ccc2c(c1)OCO2)c1ccc(NC(=O)c2ccccc2Cl)cc1,inactive: -12%,
Cc1ccc(-c2csc3nc[nH]c(=S)c23)cc1C,,"inconclusive: 23.1 µM [cytotoxic, single point]"
